Measured values taken from PMC8901487.
Results are given in words; binding and its absence hold for the method and conditions named. Binding seen in cells or lysates may run through a third protein. These calls come from enrichment with a bait or labelling near it, and not all partners need be listed.

By UniProt entry, the sequences of proteins in these tests, tags left out.
UniProt Q6ZTA4: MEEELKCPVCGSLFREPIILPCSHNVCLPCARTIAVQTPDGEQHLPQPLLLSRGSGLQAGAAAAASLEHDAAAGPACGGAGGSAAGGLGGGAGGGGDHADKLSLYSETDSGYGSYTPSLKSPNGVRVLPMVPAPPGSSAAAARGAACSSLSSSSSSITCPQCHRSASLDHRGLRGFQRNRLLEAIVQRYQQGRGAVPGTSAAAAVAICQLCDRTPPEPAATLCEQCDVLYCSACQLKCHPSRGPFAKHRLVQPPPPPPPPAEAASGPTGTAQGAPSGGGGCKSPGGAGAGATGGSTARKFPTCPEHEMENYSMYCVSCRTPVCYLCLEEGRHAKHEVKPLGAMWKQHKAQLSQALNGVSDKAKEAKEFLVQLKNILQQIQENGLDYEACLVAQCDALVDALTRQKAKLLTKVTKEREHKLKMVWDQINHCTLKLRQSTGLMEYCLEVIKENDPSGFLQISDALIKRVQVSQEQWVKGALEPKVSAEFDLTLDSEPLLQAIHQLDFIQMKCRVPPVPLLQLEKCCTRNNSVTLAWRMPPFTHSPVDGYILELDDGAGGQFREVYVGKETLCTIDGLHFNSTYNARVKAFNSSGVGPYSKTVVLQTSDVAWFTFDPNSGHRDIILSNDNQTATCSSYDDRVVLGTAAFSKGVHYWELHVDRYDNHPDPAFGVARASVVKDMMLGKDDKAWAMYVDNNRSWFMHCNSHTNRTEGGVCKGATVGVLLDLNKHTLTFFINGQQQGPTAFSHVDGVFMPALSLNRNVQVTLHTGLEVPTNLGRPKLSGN
UniProt Q9UKB1: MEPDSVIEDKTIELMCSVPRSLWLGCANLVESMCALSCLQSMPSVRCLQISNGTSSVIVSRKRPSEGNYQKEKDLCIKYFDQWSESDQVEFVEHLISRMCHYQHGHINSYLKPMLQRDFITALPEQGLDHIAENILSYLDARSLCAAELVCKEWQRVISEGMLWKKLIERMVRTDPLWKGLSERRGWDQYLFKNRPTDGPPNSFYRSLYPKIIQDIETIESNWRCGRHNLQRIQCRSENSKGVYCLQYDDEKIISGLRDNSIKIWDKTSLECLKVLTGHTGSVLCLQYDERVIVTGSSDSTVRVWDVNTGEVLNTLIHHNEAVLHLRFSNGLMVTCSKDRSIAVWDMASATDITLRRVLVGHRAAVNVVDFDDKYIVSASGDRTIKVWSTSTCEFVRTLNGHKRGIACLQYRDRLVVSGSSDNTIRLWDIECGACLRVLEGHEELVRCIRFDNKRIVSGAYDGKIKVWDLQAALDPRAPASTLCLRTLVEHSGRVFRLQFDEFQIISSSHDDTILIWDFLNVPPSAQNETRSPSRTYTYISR

Target: FLAG-tagged TRIM67 (wild type, full length) (human) (UniProt Q6ZTA4)
Assay: affinity purification with mass spectrometry; 293T cells transfected with pTRIP-TRIM67-3FLAG or empty vector, NP40 lysis buffer, anti-FLAG M2 affinity gel at 4°C overnight, five washes, elution with 3X FLAG peptide, LC-MS/MS

endogenous β-TrCP (from UniProt Q9UKB1 1-542)
binding: binds
